Experimental data taken from article PMC8993103.

Chains of the proteins cited; added tags and fusions are not shown. Residues count along the entry.
UniProt P05161, residues 1-157: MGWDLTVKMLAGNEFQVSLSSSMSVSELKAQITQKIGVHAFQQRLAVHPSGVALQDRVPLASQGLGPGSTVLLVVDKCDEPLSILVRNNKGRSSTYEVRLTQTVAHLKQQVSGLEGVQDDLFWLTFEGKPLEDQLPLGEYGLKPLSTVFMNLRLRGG
UniProt P63104: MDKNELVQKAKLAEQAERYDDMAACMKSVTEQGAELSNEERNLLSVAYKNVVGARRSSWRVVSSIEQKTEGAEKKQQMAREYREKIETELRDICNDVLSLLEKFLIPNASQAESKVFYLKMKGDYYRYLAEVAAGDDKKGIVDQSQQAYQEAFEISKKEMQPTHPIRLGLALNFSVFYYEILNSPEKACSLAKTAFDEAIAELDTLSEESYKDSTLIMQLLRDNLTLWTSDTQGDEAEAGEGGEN

Molecular target: interferon-stimulated gene 15 (ISG15), HA-tagged (UniProt P05161)
Test: affinity purification with mass spectrometry; anti-HA immunoprecipitation (Protein A/G PLUS-Agarose) from RIPA lysates of 293T cells, 48 h after transfection with control, HA-ISG15, HA-14-3-3ζ or HA-ISG15 + HA-14-3-3ζ; SDS-PAGE, Coomassie; gel regions 20-37 kDa and 37-75 kDa excised, digested with trypsin, analysed by mass spectrometry

Substance: 14-3-3ζ protein, HA-tagged (from UniProt P63104 1-245)
- binding: binds

Results are given in words; binding and its absence hold for the method and conditions named. In cells and extracts the contact can be indirect. Here binding means that the protein was enriched with, or labelled near, the bait; the list need not be complete.
